PubChem BioAssay AID504744 – Drosophila RNAi Screening Center, 2011

Screen: 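Uncover factors, including feedback loops, that control dAkt activation in fly cells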 (primary screen)
Cell system: Drosophila Kc167 cells
Reagent: long dsRNA against Drosophila genes, 250 ng dsRNA per well of a 384-well plate
Duration: 3 days of knock-down, then overnight serum-free starvation before stimulation
Challenge: bovine insulin at 387 nM for 10 minutes after 12 h without serum
Measurement: 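Per-well phospho-dAkt level from an in-cell fluorescent antibody stain, divided by a DNA-dye signal; log2 residuals turned into z-scores that take cell number into account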
Hit rule: 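Hit in the insulin screen when the two-replicate mean z-score is more extreme than plus or minus 2.5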
The screen tested about 23,000 reagents; shown is an unselected part of those that have a named target and a result. Of all reagents, 98 (0.43%) are marked active. 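Only hit calls are given; the phospho-dAkt signals, z-scores and hit direction were not deposited.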 The numbers tell different reagents against one gene apart.

CG13197 gave inactive. For c(2)M, the entry reads inactive. Slbp scored inactive. For CG11927, the entry reads inactive. ninaA scored inactive. Depletion of CG34197 (retired record) resulted in: inactive.

After knock-down of Ogdh #1, the screen gave inactive. Ogdh #2 showed inactive. Against Sur-8 the deposit lists inactive. Depletion of CG15498 gave: inactive. After knock-down of CG11227 the results were inactive. For Jupiter #1 the deposit lists inactive.

After knock-down of Jupiter #2, the screen gave inactive. For Jupiter #3 the deposit lists inactive. Against CheA46a, the entry reads inactive. With knock-down of CG7546 #1, the screen gave inactive. Depletion of CG7546 #2 resulted in: active. Knock-down of CG7546 #3 resulted in: inactive.

CG7366 scored inactive. Stam scored inactive. Against kis #1, the entry reads inactive. With knock-down of kis #2 the results were inactive. kis #3 gave inactive.

Called active, of those listed so far:
CG7546 #2: outcome = active
